Data from patent US20040255343A1, “Caspase-9 deficient animals and the use thereof” (priority 1998, published 2004).
At least one compound was matched to its structure with a doubt left.

Tested on: Caspase-9 −/− thymocytes
Experiment: DNA fragmentation assay (DNA laddering on agarose gel)
Format: cell-based, mice
Description: Thymocytes were isolated from wild type and Caspase9 −/− mice. One million cells were treated with 2 μM dexamethasone (Sigma), 1 μM staurosporine (Sigma), 1 μg/ml anti-mouse Fas antibody (PharMingen) plus […] cycloheximide (Sigma), or 10% FCS medium only for 6 hr or 24 hr. Samples were stained with Annexin V (Boehringer Mannheim) and 7-aminoactinomycin D (7-AAD) (Sigma) to label apoptotic cells for FACS Sort (Becton Dickinson).
DNA was isolated using a DNA isolation kit (LeMax Biotech) and subjected to electrophoresis on a 2% agarose gel. Gels were stained by ethidium bromide and images were taken by a scanner.

For C[C@@H]1C[C@H]2[C@@H]3CCC4=CC(=O)C=C[C@]4(C)[C@@]3(F)[C@@H](O)C[C@]2(C)[C@@]1(O)C(=O)CO [dexamethasone], the DNA laddering (Caspase-9 deficient thymocytes, up to 24 hours of treatment) was “did not undergo DNA laddering” and the “DNA cleavage after long-term treatment” value (Caspase-9 −/− thymocytes, 36 and 48 hours of continual treatment (data not shown)) was “did begin to cleave their DNA”.
